From publication PMC8700349
These are yes or no findings as the source states them, for the method shown. In cells and extracts the contact can be indirect. Some binding calls cover weakened binding; strength is not graded here.

Chains of the proteins cited; added tags and fusions are not shown. Residues count along the entry.
UniProt P16070, residues 21-742: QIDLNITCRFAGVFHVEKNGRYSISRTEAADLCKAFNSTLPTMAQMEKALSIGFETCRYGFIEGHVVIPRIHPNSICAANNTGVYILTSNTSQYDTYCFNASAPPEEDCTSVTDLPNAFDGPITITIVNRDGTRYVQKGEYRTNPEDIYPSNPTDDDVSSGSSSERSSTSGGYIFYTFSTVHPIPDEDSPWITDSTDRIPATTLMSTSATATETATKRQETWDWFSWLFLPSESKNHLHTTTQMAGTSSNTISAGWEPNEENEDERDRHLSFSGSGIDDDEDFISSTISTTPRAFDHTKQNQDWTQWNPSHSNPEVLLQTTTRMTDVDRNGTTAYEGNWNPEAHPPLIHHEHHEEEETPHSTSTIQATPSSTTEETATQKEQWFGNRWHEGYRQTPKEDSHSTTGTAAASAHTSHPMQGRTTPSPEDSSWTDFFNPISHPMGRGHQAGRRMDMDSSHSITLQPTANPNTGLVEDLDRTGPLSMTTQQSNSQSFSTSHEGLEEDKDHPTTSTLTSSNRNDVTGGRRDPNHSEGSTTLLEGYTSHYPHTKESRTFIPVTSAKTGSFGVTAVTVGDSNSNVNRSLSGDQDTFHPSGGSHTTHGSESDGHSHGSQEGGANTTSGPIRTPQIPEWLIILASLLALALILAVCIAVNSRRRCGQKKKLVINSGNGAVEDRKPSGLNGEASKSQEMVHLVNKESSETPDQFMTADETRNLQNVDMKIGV

Target: T1, C6S specific binding peptide
T1 sequence (peptide, biotin on the N-terminus): EKRIWFPYRRF
Assay: pull-down; biotinylated C6S-p mixed with 0.8 mg A172 cell lysate, 4 °C, 16 h; streptavidin beads 3 h; Western blot for CD44; only the target purified

- binding: binds
Substance: CD44 (from UniProt P16070 21-742)
